According to the supplement of paper PMC11348887:
Structures can show the parent of a compound that is named as a salt. The list shows a part of the results. Small differences around the control level are noise.

What was measured:
Conditions in all cases: 5 µM; treatment: days 7-14 after plating, readout day 21
[1] = system: hPSC-derived cortical neurons (WA09); assay: nucleus area z-score vs screen plate; higher = larger nuclei (more mature)
[2] = system: hPSC-derived cortical neurons (WA09); assay: total neurite length per nucleus (MAP2) z-score; higher = more neurite growth
[3] = system: hPSC-derived cortical neurons (WA09); assay: nucleus roundness z-score vs screen plate; higher = rounder nuclei (more mature)
[4] = system: hPSC-derived cortical neurons (WA09); assay: KCl-induced FOS+/EGR-1+ double-positive nuclei fraction z-score (KCl minus unstimulated); higher = stronger activity-induced IEG response

| Compound | nucleus area z-score [1] | total neurite length per nucleus (z-score) [2] | nucleus roundness z-score [3] | KCl-induced FOS+/EGR-1+ double-positive nuclei fraction z-score [4] |
| --- | --- | --- | --- | --- |
| C[N+](C)(C)CCCCCC[N+](C)(C)C [Hexamethonium Bromide] | 1.24 | -0.677 | 0.0412 | 0.618 |
| Cc1nc(-c2cn3c(n2)-c2ccc(-c4cnn(C(C)(C)C(N)=O)c4)cc2OCC3)n(C(C)C)n1 | -4.25 | -0.636 | -0.302 | 0.629 |
| Cc1ccc([C@@H]2O[C@H](CO)[C@@H](O)[C@H](O)[C@H]2O)cc1Cc1ccc(-c2ccc(F)cc2)s1 [Canagliflozin] | 2.23 | 0.755 | 0.613 | -0.346 |
| CCn1cc(-c2cccc(C(F)(F)F)c2)c2sc(C(=N)NC3CCS(=O)(=O)CC3)cc2c1=O | -1.55 | -1.37 | -0.411 | -0.565 |
| CN(C)CCOC(c1ccccc1)c1ccccc1 [Diphenhydramine HCl] | 0.578 | -0.305 | -0.242 | 0.0794 |
| Clc1ccccc1C(c1ccccc1)(c1ccccc1)n1ccnc1 [Clotrimazole] | -0.624 | -0.0312 | 0.184 | -0.486 |
| CC1(C)OC(=O)NC1=O [5,5-Dimethyloxazolidine-2,4-dione] | 0.452 | -0.522 | -1.21 | 1.01 |
| O=C(O)c1cccnc1Nc1cccc(C(F)(F)F)c1 [Niflumic acid] | 0.0526 | -0.15 | 0.34 | -0.333 |
| CCN(C(=O)c1c(O)c2c(Cl)cccc2n(C)c1=O)c1ccccc1 [Laquinimod] | 1.12 | 0.222 | -0.0275 | 0.272 |
| CN[C@@H]1[C@@H](O)[C@@H](O[C@@H]2[C@@H](O)[C@H](O[C@H]3OC(CN)=CC[C@H]3N)[C@@H](N)C[C@H]2N)OC[C@]1(C)O [Sisomicin sulfate] | 2.91 | 1.73 | 0.558 | 0.139 |
| O=C1CCC(N2C(=O)c3ccccc3C2=O)C(=O)N1 (centres undefined) [Thalidomide] | 1.46 | -0.45 | 0.754 | 1.09 |
| CC1(C)CCC2=C(O1)c1ccccc1C(=O)C2=O [Beta-Lapachone] | -10.8 | -3.64 | -7.3 | -0.893 |
| Clc1ccc(CCC(Cn2ccnc2)Sc2c(Cl)cccc2Cl)cc1 (centres undefined) [Butoconazole nitrate] | -4.3 | -1.4 | -1.97 | 1.36 |
| COc1ccc(C(=O)c2ccccc2)c(O)c1 [Oxybenzone] | 0.162 | 0.257 | -0.331 | 1.59 |
| C[C@H](CCC(=O)O)[C@H]1CC[C@H]2[C@@H]3[C@H](O)C[C@@H]4C[C@H](O)CC[C@]4(C)[C@H]3CC[C@]12C [Chenodeoxycholic Acid] | 0.265 | 0.182 | 0.774 | 0.717 |
| CC(C)c1cc(C(=O)N2Cc3ccc(CN4CCN(C)CC4)cc3C2)c(O)cc1O | -3.53 | -2.18 | -3.81 | -2.64 |
| COc1ccc(CN(CCN(C)C)c2ccccn2)cc1 [Pyrilamine Maleate] | 2.51 | 0.925 | -0.0156 | 0.927 |
| O=C1NC(=O)C(c2cnc3ccccn23)=C1c1cn2c3c(cc(F)cc13)CN(C(=O)N1CCCCC1)CC2 | -0.665 | -0.447 | -2.37 | -1.22 |
| c1ccc(C2CN3CCSC3=N2)cc1 (centres undefined) [Tetramisole HCl] | 0.455 | 1.18 | 0.593 | 2.12 |
| CN1C2CCC1CC(OC(=O)C(O)c1ccccc1)C2 (centres undefined) [Homatropine Bromide] | 0.0223 | 0.13 | -1.13 | 0.206 |
| CC#CCn1c(N2CCC[C@@H](N)C2)nc2c1c(=O)n(Cc1nc(C)c3ccccc3n1)c(=O)n2C [Linagliptin] | 0.367 | 0.884 | 0.631 | 0.715 |
| COc1ccc([C@@H]2CC(=O)c3c(O)cc(O[C@@H]4O[C@H](CO)[C@@H](O)[C@H](O)[C@H]4O[C@@H]4O[C@@H](C)[C@H](O)[C@@H](O)[C@H]4O)cc3O2)cc1O [Neohesperidin] | -3.01 | -1.12 | -0.41 | 0.831 |
| O=c1[nH]c(=O)n(C2CC(O)C(CO)O2)cc1Br (centres undefined) [Bromodeoxyuridine (BrdU)] | -0.658 | 0.312 | 0.1 | -0.0517 |
| CC(C)(CO)C(O)C(=O)NCCC(=O)O [Calcium D-Panthotenate] | -0.359 | 0.291 | -0.791 | -0.0311 |
| Cc1ccccc1N=Nc1ccc(NC(=O)c2ccnn2C)c(C)c1 | -0.164 | 0.251 | -0.403 | 0.299 |
| CC(=O)O[C@@]12CO[C@@H]1C[C@H](O)[C@@]1(C)C(=O)[C@H](O)C3=C(C)[C@@H](OC(=O)[C@H](O)[C@@H](NC(=O)OC(C)(C)C)c4ccccc4)C[C@@](O)([C@@H](OC(=O)c4ccccc4)[C@H]21)C3(C)C [Docetaxel] | -1.13 | 0.765 | -0.737 | -0.63 |

An excerpt from further up, as a working copy:

| Compound | nucleus area z-score [1] | total neurite length per nucleus (z-score) [2] | nucleus roundness z-score [3] | KCl-induced FOS+/EGR-1+ double-positive nuclei fraction z-score [4] |
| --- | --- | --- | --- | --- |
| CN1C2CCC1CC(OC(=O)C(O)c1ccccc1)C2 (centres undefined) [Homatropine Bromide] | 0.0223 | 0.13 | -1.13 | 0.206 |
| CC#CCn1c(N2CCC[C@@H](N)C2)nc2c1c(=O)n(Cc1nc(C)c3ccccc3n1)c(=O)n2C [Linagliptin] | 0.367 | 0.884 | 0.631 | 0.715 |
| COc1ccc([C@@H]2CC(=O)c3c(O)cc(O[C@@H]4O[C@H](CO)[C@@H](O)[C@H](O)[C@H]4O[C@@H]4O[C@@H](C)[C@H](O)[C@@H](O)[C@H]4O)cc3O2)cc1O [Neohesperidin] | -3.01 | -1.12 | -0.41 | 0.831 |
| O=c1[nH]c(=O)n(C2CC(O)C(CO)O2)cc1Br (centres undefined) [Bromodeoxyuridine (BrdU)] | -0.658 | 0.312 | 0.1 | -0.0517 |
| CC(C)(CO)C(O)C(=O)NCCC(=O)O [Calcium D-Panthotenate] | -0.359 | 0.291 | -0.791 | -0.0311 |
| Cc1ccccc1N=Nc1ccc(NC(=O)c2ccnn2C)c(C)c1 | -0.164 | 0.251 | -0.403 | 0.299 |
| CC(=O)O[C@@]12CO[C@@H]1C[C@H](O)[C@@]1(C)C(=O)[C@H](O)C3=C(C)[C@@H](OC(=O)[C@H](O)[C@@H](NC(=O)OC(C)(C)C)c4ccccc4)C[C@@](O)([C@@H](OC(=O)c4ccccc4)[C@H]21)C3(C)C [Docetaxel] | -1.13 | 0.765 | -0.737 | -0.63 |
